# Article PMC10398660
# Sequences of proteins named here, by UniProt entry; tags and fusion partners are left off.
# UniProt P46379: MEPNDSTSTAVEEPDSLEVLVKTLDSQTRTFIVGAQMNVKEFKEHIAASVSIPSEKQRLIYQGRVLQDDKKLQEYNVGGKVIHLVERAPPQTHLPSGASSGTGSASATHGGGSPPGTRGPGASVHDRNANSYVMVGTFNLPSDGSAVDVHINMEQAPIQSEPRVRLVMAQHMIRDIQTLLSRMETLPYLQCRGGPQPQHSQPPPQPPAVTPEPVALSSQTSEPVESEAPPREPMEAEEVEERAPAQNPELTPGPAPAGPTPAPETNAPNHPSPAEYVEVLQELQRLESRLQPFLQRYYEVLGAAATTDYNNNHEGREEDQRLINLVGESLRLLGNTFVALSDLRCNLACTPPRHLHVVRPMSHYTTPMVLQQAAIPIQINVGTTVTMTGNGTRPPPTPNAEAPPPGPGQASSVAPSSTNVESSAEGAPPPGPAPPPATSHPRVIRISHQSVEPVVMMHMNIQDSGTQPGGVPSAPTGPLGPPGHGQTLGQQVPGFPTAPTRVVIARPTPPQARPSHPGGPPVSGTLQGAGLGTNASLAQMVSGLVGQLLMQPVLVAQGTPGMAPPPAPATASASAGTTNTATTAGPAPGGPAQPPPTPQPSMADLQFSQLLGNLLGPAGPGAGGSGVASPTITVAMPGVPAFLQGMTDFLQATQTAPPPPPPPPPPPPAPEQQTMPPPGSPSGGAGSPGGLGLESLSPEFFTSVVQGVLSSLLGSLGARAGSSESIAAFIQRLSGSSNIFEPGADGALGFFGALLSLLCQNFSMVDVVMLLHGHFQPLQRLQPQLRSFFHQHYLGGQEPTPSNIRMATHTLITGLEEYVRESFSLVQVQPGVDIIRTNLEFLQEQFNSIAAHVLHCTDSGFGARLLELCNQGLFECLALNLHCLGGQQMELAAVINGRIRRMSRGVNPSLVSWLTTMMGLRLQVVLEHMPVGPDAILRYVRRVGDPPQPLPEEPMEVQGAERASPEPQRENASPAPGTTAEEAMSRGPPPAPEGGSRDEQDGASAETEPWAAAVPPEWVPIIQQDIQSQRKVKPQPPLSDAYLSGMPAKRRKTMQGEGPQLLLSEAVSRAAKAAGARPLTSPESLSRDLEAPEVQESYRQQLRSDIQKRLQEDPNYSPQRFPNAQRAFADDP
# UniProt Q9ULT8: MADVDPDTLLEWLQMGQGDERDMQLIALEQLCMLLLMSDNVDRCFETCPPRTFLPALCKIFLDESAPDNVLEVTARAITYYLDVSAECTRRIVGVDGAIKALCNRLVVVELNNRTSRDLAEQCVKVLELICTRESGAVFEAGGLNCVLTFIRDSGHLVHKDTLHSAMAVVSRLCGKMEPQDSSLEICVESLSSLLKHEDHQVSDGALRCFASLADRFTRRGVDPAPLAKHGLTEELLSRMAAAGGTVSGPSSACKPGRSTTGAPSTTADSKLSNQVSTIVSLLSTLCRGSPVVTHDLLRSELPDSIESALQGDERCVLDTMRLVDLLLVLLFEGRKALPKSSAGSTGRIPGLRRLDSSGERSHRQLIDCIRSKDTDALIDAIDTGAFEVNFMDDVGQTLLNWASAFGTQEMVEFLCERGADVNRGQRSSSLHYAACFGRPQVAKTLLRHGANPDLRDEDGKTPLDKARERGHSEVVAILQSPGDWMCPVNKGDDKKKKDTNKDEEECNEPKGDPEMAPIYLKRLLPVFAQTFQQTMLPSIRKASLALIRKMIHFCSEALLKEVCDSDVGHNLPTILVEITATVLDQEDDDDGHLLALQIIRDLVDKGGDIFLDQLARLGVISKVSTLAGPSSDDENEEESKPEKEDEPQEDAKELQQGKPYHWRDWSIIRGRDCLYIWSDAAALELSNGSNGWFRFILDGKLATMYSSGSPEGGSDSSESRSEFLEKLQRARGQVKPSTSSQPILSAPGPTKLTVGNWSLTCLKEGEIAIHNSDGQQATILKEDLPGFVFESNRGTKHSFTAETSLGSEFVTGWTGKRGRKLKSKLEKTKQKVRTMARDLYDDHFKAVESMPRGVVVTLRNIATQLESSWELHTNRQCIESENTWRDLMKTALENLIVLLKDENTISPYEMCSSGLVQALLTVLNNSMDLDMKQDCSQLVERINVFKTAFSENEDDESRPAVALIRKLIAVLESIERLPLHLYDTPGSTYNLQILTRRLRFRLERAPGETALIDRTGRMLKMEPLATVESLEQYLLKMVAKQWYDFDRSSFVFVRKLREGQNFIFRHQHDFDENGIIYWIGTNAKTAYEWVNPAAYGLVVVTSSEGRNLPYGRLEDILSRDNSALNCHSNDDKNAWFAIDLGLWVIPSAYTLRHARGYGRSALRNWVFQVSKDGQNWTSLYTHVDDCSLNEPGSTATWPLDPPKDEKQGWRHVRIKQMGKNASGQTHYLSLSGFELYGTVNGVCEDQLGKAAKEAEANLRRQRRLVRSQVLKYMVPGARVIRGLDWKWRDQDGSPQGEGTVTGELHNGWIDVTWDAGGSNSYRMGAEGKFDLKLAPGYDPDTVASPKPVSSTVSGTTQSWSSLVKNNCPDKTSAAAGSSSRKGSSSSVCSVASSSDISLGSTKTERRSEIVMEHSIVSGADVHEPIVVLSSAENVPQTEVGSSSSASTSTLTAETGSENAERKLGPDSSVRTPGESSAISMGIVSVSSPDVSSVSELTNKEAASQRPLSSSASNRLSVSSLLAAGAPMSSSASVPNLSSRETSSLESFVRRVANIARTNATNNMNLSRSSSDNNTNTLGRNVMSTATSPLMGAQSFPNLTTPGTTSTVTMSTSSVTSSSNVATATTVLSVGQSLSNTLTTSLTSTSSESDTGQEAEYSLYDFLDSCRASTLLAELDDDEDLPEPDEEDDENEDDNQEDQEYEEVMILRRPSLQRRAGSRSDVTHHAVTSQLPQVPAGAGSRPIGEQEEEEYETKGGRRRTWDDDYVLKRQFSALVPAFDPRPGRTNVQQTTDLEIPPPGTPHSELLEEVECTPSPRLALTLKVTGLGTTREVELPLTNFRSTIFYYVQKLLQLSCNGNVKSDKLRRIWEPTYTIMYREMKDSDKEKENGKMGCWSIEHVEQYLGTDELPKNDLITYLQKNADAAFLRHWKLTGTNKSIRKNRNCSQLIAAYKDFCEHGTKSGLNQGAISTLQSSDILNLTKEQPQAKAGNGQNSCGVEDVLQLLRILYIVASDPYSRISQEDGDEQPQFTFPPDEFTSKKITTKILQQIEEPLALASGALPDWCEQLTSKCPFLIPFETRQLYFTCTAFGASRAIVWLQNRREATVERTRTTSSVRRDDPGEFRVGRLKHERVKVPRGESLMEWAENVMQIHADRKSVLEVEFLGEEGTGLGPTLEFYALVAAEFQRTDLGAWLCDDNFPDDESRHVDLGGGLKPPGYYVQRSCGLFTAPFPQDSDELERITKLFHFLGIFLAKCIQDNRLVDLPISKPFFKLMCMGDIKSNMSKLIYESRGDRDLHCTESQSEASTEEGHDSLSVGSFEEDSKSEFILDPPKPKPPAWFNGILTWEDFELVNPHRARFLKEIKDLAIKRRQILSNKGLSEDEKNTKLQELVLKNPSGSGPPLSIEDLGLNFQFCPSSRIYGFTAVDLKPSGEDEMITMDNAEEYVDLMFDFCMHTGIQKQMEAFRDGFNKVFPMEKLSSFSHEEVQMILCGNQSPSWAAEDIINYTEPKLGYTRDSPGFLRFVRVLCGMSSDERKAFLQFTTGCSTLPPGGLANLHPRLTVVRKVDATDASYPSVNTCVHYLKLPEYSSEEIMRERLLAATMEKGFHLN
# UniProt O95071: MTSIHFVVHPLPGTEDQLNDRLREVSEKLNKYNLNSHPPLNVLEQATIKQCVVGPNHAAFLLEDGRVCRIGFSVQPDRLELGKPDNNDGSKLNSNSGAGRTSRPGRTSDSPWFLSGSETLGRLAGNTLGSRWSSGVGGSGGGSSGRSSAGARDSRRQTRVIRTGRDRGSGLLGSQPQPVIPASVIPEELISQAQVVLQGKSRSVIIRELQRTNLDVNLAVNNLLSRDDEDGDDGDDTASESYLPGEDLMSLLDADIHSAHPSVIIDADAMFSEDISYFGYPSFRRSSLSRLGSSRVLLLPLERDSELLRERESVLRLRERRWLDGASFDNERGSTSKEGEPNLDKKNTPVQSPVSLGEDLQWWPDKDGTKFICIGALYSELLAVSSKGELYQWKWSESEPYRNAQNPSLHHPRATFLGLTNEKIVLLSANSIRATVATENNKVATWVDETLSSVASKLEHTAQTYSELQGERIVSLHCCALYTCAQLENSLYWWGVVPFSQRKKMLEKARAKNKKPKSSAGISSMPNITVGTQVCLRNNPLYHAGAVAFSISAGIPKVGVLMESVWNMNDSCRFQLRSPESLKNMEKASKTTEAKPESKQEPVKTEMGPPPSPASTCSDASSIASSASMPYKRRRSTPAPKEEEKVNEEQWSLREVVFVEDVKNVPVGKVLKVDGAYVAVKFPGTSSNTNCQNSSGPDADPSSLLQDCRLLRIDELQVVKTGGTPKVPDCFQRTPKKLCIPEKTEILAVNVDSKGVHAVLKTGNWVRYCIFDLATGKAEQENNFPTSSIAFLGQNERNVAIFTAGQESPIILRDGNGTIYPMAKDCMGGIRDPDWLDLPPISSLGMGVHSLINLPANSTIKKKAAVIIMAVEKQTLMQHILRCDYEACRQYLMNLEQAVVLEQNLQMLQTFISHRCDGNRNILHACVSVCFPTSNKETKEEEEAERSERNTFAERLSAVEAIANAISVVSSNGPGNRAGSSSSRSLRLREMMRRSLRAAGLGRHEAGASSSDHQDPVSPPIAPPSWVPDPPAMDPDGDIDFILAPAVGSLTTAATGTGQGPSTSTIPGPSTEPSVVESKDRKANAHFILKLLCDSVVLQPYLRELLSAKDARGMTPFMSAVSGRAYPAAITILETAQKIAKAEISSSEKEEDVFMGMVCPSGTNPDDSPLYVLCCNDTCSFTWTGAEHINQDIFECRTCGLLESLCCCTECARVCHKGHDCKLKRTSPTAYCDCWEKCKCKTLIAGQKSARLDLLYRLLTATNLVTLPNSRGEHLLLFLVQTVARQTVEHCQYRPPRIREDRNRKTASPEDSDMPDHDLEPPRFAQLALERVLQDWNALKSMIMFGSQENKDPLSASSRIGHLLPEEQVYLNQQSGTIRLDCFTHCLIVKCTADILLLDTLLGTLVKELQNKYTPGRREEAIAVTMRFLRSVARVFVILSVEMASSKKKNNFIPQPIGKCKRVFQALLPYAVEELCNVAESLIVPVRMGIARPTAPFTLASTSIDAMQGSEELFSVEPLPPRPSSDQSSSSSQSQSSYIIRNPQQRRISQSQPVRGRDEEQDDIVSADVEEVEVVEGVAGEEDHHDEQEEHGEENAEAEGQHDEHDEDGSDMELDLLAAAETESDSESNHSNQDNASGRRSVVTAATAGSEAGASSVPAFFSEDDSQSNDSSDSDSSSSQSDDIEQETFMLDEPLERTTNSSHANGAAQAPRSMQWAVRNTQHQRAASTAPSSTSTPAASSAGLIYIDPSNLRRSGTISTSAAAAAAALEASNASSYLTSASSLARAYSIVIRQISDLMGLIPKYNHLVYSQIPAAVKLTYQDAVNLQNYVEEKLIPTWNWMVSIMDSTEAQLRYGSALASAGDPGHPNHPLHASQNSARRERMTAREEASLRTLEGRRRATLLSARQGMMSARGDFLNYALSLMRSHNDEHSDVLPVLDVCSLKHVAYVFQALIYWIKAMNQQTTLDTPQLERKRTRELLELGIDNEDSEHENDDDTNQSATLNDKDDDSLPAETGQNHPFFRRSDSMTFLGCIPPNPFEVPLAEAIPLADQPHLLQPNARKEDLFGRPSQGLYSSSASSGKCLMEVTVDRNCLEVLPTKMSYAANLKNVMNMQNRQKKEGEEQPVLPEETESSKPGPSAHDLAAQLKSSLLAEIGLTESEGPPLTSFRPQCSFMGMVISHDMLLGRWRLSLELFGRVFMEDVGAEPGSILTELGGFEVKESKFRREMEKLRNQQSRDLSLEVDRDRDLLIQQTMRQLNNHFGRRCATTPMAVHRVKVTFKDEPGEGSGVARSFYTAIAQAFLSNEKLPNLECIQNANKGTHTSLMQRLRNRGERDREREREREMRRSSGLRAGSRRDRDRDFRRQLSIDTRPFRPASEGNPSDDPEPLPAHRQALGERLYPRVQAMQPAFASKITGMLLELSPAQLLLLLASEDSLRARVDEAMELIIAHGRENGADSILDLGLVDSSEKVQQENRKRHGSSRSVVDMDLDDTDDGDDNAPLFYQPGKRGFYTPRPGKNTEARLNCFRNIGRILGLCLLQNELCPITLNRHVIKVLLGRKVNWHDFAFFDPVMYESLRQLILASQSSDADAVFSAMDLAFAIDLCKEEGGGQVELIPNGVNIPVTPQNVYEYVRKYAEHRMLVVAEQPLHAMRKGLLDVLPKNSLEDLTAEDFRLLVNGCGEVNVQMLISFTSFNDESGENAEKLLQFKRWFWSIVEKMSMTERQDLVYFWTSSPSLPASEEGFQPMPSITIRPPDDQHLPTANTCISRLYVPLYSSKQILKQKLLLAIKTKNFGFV
# Results are given in words; binding and its absence hold for the method and conditions named. In cells and extracts the contact can be indirect. A yes stands for co-enrichment or nearness to the bait. Other partners may have been found. For some assays here: No binding means not detected with the bait. Sequences can lack the tags named with a protein.
# T1: C9orf72-HA (C-terminal HA-tagged C9orf72) (UniProt Q96LT7)
# T1 sequence: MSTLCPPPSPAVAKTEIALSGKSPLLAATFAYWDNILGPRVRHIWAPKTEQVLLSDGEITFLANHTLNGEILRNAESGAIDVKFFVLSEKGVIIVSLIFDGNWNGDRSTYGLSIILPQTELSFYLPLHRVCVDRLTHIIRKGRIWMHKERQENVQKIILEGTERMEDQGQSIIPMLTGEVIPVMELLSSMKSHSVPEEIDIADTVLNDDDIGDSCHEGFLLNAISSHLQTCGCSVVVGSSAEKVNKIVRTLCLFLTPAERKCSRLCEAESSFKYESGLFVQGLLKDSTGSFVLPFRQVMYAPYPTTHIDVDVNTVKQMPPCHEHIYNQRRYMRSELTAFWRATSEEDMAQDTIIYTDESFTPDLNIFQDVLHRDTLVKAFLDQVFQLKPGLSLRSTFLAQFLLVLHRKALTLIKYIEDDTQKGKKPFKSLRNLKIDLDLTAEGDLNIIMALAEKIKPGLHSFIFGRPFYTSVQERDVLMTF
# B1: RLIM, endogenous (enzyme, UniProt Q9NVW2 1-624)
# chain: MENSDSNDKGSGDQSAAQRRSQMDRLDREEAFYQFVNNLSEEDYRLMRDNNLLGTPGESTEEELLRRLQQIKEGPPPQNSDENRGGDSSDDVSNGDSIIDWLNSVRQTGNTTRSGQRGNQSWRAVSRTNPNSGDFRFSLEINVNRNNGSQNSENENEPSARRSSGENVENNSQRQVENPRSESTSARPSRSERNSTEALTEVPPTRGQRRARSRSPDHRRTRARAERSRSPLHPMSEIPRRSHHSISSQTFEHPLVNETEGSSRTRHHVTLRQQISGPELLSRGLFAASGTRNASQGAGSSDTAASGESTGSGQRPPTIVLDLQVRRVRPGEYRQRDSIASRTRSRSQTPNNTVTYESERGGFRRTFSRSERAGVRTYVSTIRIPIRRILNTGLSETTSVAIQTMLRQIMTGFGELSYFMYSDSDSEPTGSVSNRNMERAESRSGRGGSGGGSSSGSSSSSSSSSSSSSSSSSSSSPSSSSGGESSETSSDLFEGSNEGSSSSGSSGARREGRHRAPVTFDESGSLPFLSLAQFFLLNEDDDDQPRGLTKEQIDNLAMRSFGENDALKTCSVCITEYTEGNKLRKLPCSHEYHVHCIDRWLSENSTCPICRRAVLASGNRESVV
# B2: UBL4A, endogenous (protein, UniProt P11441 1-157)
# chain: MQLTVKALQGRECSLQVPEDELVSTLKQLVSEKLNVPVRQQRLLFKGKALADGKRLSDYSIGPNSKLNLVVKPLEKVLLEEGEAQRLADSPPPQVWQLISKVLARHFSAADASRVLEQLQRDYERSLSRLTLDDIERLASRFLHPEVTETMEKGFSK
# B3: MARCH7, endogenous (enzyme, UniProt Q9H992 1-704)
# chain: MESKPSRIPRRISVQPSSSLSARMMSGSRGSSLNDTYHSRDSSFRLDSEYQSTSASASASPFQSAWYSESEITQGARSRSQNQQRDHDSKRPKLSCTNCTTSAGRNVGNGLNTLSDSSWRHSQVPRSSSMVLGSFGTDLMRERRDLERRTDSSISNLMDYSHRSGDFTTSSYVQDRVPSYSQGARPKENSMSTLQLNTSSTNHQLPSEHQTILSSRDSRNSLRSNFSSRESESSRSNTQPGFSYSSSRDEAPIISNSERVVSSQRPFQESSDNEGRRTTRRLLSRIASSMSSTFFSRRSSQDSLNTRSLNSENSYVSPRILTASQSRSNVPSASEVPDNRASEASQGFRFLRRRWGLSSLSHNHSSESDSENFNQESEGRNTGPWLSSSLRNRCTPLFSRRRREGRDESSRIPTSDTSSRSHIFRRESNEVVHLEAQNDPLGAAANRPQASAASSSATTGGSTSDSAQGGRNTGISGILPGSLFRFAVPPALGSNLTDNVMITVDIIPSGWNSADGKSDKTKSAPSRDPERLQKIKESLLLEDSEEEEGDLCRICQMAAASSSNLLIEPCKCTGSLQYVHQDCMKKWLQAKINSGSSLEAVTTCELCKEKLELNLEDFDIHELHRAHANEQAEYEFISSGLYLVVLLHLCEQSFSDMMGNTNEPSTRVRFINLARTLQAHMEDLETSEDDSEEDGDHNRTFDIA
# Target: T1, C9orf72-HA (C-terminal HA-tagged C9orf72)
# Assay: affinity purification with mass spectrometry; HA-IP (anti-HA beads, overnight, 4°C) from C9orf72-HA expressing 293T SMCR8 KO cells treated with DMSO or Btz (1 μM, 8 h); MCLB buffer (50 mM Tris-HCl pH 7.4, 150 mM NaCl, 0.5% NP-40); eluted with HA peptide; label-free quantification, Btz against DMSO
row,binding,Molecule
1,binds,"BAG6, endogenous (from UniProt P46379 1-1132)"
2,binds,"GET4, endogenous (from UniProt Q7L5D6 1-327)"
3,binds,"HECTD1, endogenous (from UniProt Q9ULT8 1-2610) (enzyme)"
4,binds,"RAD23B, endogenous (from UniProt P54727 1-409)"
5,binds,"UBE3A, endogenous (from UniProt Q05086 1-875) (enzyme)"
6,no binding,"UBR4, endogenous (from UniProt Q5T4S7 1-5183) (enzyme)"
7,binds,"UBR5 (E3 ligase), endogenous (from UniProt O95071 1-2799) (enzyme)"
8,binds,"VCP, endogenous (from UniProt P55072 1-806)"

# Target: T1, C9orf72-HA (C-terminal HA-tagged C9orf72)
# Assay: as above
# Remark: another data set of the same source
row,binding,Molecule
1,binds,B1
2,binds,B2
3,binds,B3
